Measured values reported in PubChem BioAssay AID1347076 (National Center for Advancing Translational Sciences (NCATS), 2019).
About 13,000 (3.2%) of roughly 400,000 compounds were called active. The shares of active, inactive and inconclusive entries below differ from those in the screen. Calls come from the whole dose curve; as a rule, active = well fitted cell-killing curve with a large enough effect; inconclusive = small, poorly fitted or top-dose-only effect, or effect the other way; inactive = flat fitted curve, though single readings scatter. Where the call is inconclusive, the potency comes from a doubtful curve fit.

Assay: qHTS assay for MDR1-selective chemotherapeutics: Primary screen using the drug-selected MDR subline cells KB-V1; note: nearly all actives have a fitted effect of over 60% in size
Details: KB-V1 MDR cells viability, CellTiter-Glo, 72 h; activity change, negative = cytotoxicity: at 46.1 µM (top of the series)
Outline: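 Drug-selected KB-V1 cells, grown in DMEM lacking phenol red with 10% FBS, receive compound titrations; after three days at 37 degrees C, surviving cell ATP is quantified by CellTiter-Glo luminescence and responses normalized and curve-fitted.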
% is set by controls: 0 for no effect and ±100 for the full control effect; potency is the fitted concentration of half-maximal effect.

Row | Compound | Potency | activity change, negative = cytotoxicity
1 | Cc1ccc(NNC(=O)c2cc(C(C)(C)C)nn2Cc2ccccc2)cc1 | inactive | 
2 | CC(=O)Nc1cccc(OCc2cnc(Cl)s2)c1 | inconclusive: 20.6 µM [rising, single point] | 
3 | O=C(C[C@@H]1C/C=C\C[C@H](Cc2ccc(F)cc2)C(=O)OC[C@H]2CCCN2C1=O)N[C@H](CO)Cc1ccccc1 | inactive | 
4 | Cc1cnc(C)c(N2CCN(Cc3nc(-c4ccc(C)o4)oc3C)CC2)n1 | inconclusive: 7.31 µM [cytotoxic, partial curve, poor fit] | 
5 | CC(Sc1nc(-c2ccccc2)c(C#N)c(=O)[nH]1)C(=O)Nc1ccc(F)cc1 (stereo not given) | inconclusive: 18.4 µM [rising, single point] | 
6 | CC(=O)N1N=C(c2cccc([N+](=O)[O-])c2)OC1c1ccc(Cl)cc1Cl (stereo not given) | active: 20.6 µM | 
7 | COc1ccc(Cl)cc1N(CC(=O)Nc1ccccc1C(=O)NCc1ccco1)S(C)(=O)=O | inconclusive: 7.31 µM [cytotoxic, partial curve] | 
8 | O=c1c2ccccc2nc2n1C(CSCc1cccc(C(F)(F)F)c1)CS2 (stereo not given) | active: 2.59 µM | 
9 | O=C(c1ccc(C(F)(F)F)cc1)N1CCN(S(=O)(=O)c2ccc3c(c2)OCCCO3)CC1 | inconclusive: 8.2 µM [cytotoxic, partial curve] | 
10 | CC1CN(S(=O)(=O)c2cccc(C(=O)Nc3ccc(S(=O)(=O)NC4=NCCCCC4)cc3)c2)CC(C)O1 (stereo not given) | inactive | 
11 | O=C(C1CCN(CCCc2ccccc2)CC1)N1CCCCC1 | inactive | 
12 | Cc1nn(C)c(Cl)c1S(=O)(=O)N1CCC(CO)(CCc2ccccc2)CC1 | active: 23.1 µM | 
13 | Cc1nc(-c2ccccc2)nc2[nH]c(C(C)C)cc(=O)c12 | inconclusive: 16.4 µM [cytotoxic, partial curve] | 
14 | Nc1nc(CN2CCN(Cc3ccccc3)CC2)nc(N2CCCc3ccccc32)n1 |  | inconclusive: -26.2%
15 | N#Cc1ccccc1C[C@H](N)C(=O)NC[C@H]1O[C@@H](n2ccc(N)nc2=O)[C@H](O)[C@@H]1O | inactive | 
16 | CCN1CCCC(CO)(Cc2ccccc2)C1 (stereo not given) | inconclusive: 29.1 µM [rising, single point] | 
17 | CCOc1cc(/C=N/Nc2ncnc(Cl)c2N)ccc1O | inconclusive: 18.4 µM [cytotoxic, partial curve] | 
18 | COc1ccc(CNC(=O)C(C)OC(=O)CCN2C(=O)C3CC=CCC3C2=O)cc1 (stereo not given) | inconclusive: 32.6 µM [rising, single point] | 
19 | N#Cc1cccc2c1-c1ccccc1/C2=N/NC(N)=O | inconclusive: 13 µM [cytotoxic, partial curve, poor fit] | 
20 | CC(C)(C)c1ccc(CN2C3=NCCCN3c3ccccc32)cc1 | inconclusive: 23.1 µM [cytotoxic, partial curve, poor fit] | 
21 | COc1ccc(-c2cn[nH]c2-c2ccc(OCc3ccc(F)cc3)cc2O)cc1OC | inconclusive: 23.1 µM [cytotoxic, single point] | 
22 | CCc1nc(SCC(=O)N2CCc3cc(OC)c(OC)cc3C2)c(C#N)cc1C | inconclusive: 16.4 µM [cytotoxic, single point] | 
23 | Cc1ccc(CC(=O)NNC(=O)c2ccncc2)cc1C | inactive | 
24 | N#Cc1ccc2c(=O)n(-c3ccccc3)sc2c1 | inconclusive: 11.6 µM [cytotoxic, partial curve] | 

Row | Compound | Potency | activity change, negative = cytotoxicity
25 | COc1cc(S(=O)(=O)N2CCN=C2c2ccccc2)ccc1F | inconclusive: 32.6 µM [cytotoxic, partial curve, poor fit] | 
26 | COC(=O)c1ccc2nc(C)cc(Nc3ccc(O)cc3)c2c1 | inconclusive: 29.1 µM [rising, single point] | 
27 | Cc1cccc(Oc2nc3c(C)cccn3c(=O)c2/C=C(\C#N)c2nc3ccccc3s2)c1 | inactive | 
28 | COc1ccccc1C(=O)C1CCCN(C(=O)CCC(=O)c2ccccc2)C1 (stereo not given) |  | inconclusive: -7.46%
29 | O=C(CCNC(=O)c1ccc(Cl)cc1)Nc1cc(C(F)(F)F)ccc1N1CCOCC1 | inconclusive: 6.51 µM [cytotoxic, partial curve] | 
30 | O=C(Nc1cccc(C(F)(F)F)c1)c1sc(Cl)nc1C(F)(F)F | inactive | 
31 | CC(C)c1ccc(NC(=O)c2cc3c(=O)n(C)c4ccccc4c3n2C)cc1 | inconclusive: 29.1 µM [cytotoxic, single point] | 
32 | CCOc1ccccc1NC(=O)C1(S(=O)(=O)c2ccc(Cl)cc2)CC1 | inconclusive: 1.84 µM [cytotoxic, single point] | 
33 | CC1CN(C(=O)COC(=O)Cc2c(Cl)cccc2Cl)CC(C)O1 (stereo not given) | inactive | 
34 | CCCN(CCC)Cc1c(C(=O)N/N=C/c2c[nH]c3ccccc23)nnn1-c1nonc1N | inactive | 
35 | CCOC(=O)c1c(NC(NC(=O)C(C)C)C(Cl)(Cl)Cl)sc2c1CCC2 (stereo not given) | active: 23.1 µM | 
36 | O=S(=O)(c1cccc(C(F)(F)F)c1)N1CCCC1c1cccnc1 (stereo not given) | inconclusive: 23.1 µM [cytotoxic, single point] | 
37 | COc1cc(C(=O)Nc2cc(C(F)(F)F)ccc2Cl)cc(OC)c1OC | active: 20.6 µM | 
38 | O=C(CCc1nnc(Cc2ccc3c(c2)OCO3)o1)NC(c1ccccn1)C(F)(F)F (stereo not given) | inconclusive: 20.6 µM [rising, single point] | 
39 | O=c1[nH]c(/C=C/c2cccc(Br)c2)nc2ccccc12 | inconclusive: 29.1 µM [cytotoxic, single point] | 
40 | c1ccc2c(c1)Sc1cnccc1N2CC1CO1 (stereo not given) | inconclusive: 13 µM [cytotoxic, partial curve] | 
41 | COc1ccc(N=C2SC(CC(=O)Nc3ccc(OC)cc3OC)C(=O)N2C)cc1 (stereo not given) | active: 18.4 µM | 
42 | COc1cc(NC(=O)C2=C(C)Nc3nnnn3C2c2ccc(SC)cc2)c(OC)cc1Cl (stereo not given) | inconclusive: 18.4 µM [cytotoxic, single point] | 
43 | CC(C(=O)N=c1sc2ccccc2n1C)N1C(=O)C2CC=CCC2C1=O (stereo not given) | inconclusive: 8.2 µM [cytotoxic, partial curve] | 
44 | CCOC(=O)c1ccc(NC(=O)c2nc(S(=O)(=O)Cc3ccccc3)ncc2Cl)cc1 | inconclusive: 29.1 µM [cytotoxic, single point] | 
45 | Cc1c(C(=O)NCc2cccs2)sc(=O)n1Cc1ccc(S(C)(=O)=O)cc1 | inconclusive: 20.6 µM [cytotoxic, single point] | 
46 | COc1ccc(CN(C(=O)c2cccs2)c2ccccc2)cc1 | inconclusive: 29.1 µM [cytotoxic, partial curve, poor fit] | 
47 | Cc1nc(N)nc(Cl)c1CCC1OCCO1 | inconclusive: 13 µM [cytotoxic, partial curve] | 
48 | C/C(=N\NC(=O)c1c(C)nc2ccccn12)c1ccc(C(C)(C)C)cc1 | inconclusive: 9.2 µM [cytotoxic, partial curve, poor fit] | 

Look-ups from the entries so far:
Potency, CC1CN(C(=O)COC(=O)Cc2c(Cl)cccc2Cl)CC(C)O1 (stereo not given) reads inactive
activity change, negative = cytotoxicity, COc1ccccc1C(=O)C1CCCN(C(=O)CCC(=O)c2ccccc2)C1 (stereo not given) reads inconclusive: -7.46%

Next results.

Row | Compound | Potency | activity change, negative = cytotoxicity
49 | COc1ccc(-c2ccnc3nc(N4CCOCC4)nn23)cc1 | inconclusive: 23.1 µM [cytotoxic, single point] | 
50 | O=C(CS(=O)(=O)c1cn(Cc2ccc(F)cc2)c2ccccc12)N1CCOCC1 | inactive | 
51 | Cc1ccc(C)c(NC(=O)COc2cccc3c2CCN(Cc2ccccc2C)C3=O)c1 | inconclusive: 4.61 µM [cytotoxic, partial curve, poor fit] | 
52 | CCC1C(=O)CC(c2ccco2)NC1c1ccco1 (stereo not given) | inconclusive: 32.6 µM [rising, single point] | 
53 | Cc1nn(-c2ccccc2)nc1C(=O)Nc1nnc(C(F)(F)F)s1 | inconclusive: 23.1 µM [cytotoxic, single point] | 
54 | CSc1nc(C)c2c(n1)N(c1cccc(C)c1)CC2 | inconclusive: 29.1 µM [cytotoxic, single point] | 
55 | N#C/C(=N/Nc1ccccc1[N+](=O)[O-])C(N)=S | inactive | 
56 | CCCCNC(=O)c1sc(=S)n(-c2ccccc2OC)c1N | active: 20.6 µM | 
57 | COC(=O)c1cnn(-c2ccc(F)cc2F)c1/C=N/NC(N)=S | inconclusive: 5.8 µM [cytotoxic, partial curve, poor fit] | 
58 | Cc1c(NC(=O)Cn2ccc([N+](=O)[O-])n2)c(=O)n(-c2ccccc2)n1C | inactive | 
59 | Cc1ccc2nc3ccc(N4CCCCCCC4)nn3c(=O)c2c1 | inconclusive: 6.51 µM [cytotoxic, partial curve, poor fit] | 
60 | CCOc1ccc(NC2=C(Cl)C(=O)N(Cc3ccccc3)C2=O)cc1 | inconclusive: 29.1 µM [cytotoxic, single point] | 
61 | CCC(CC)C(=O)Nc1cccc(C(=O)c2ccccc2)c1 | active: 9.2 µM | 
62 | COc1ccc(CNC(=S)Nc2ccc(OC)cc2)cc1 | inactive | 
63 | Cc1ccc2c(c1)c1c(n2CC(O)CNC2CCCCC2)CCCC1 (stereo not given) | inconclusive: 29.1 µM [cytotoxic, single point] | 
64 | Cc1ccccc1OCC(=O)NNC(=O)c1ccc(-n2cncn2)c([N+](=O)[O-])c1 | inconclusive: 29.1 µM [cytotoxic, single point] | 
65 | CSc1ccccc1NC(=O)C1=CC(c2ccc3c(c2)OCO3)=NS(=O)(=O)N1C | inactive | 
66 | CC1Cc2nc(SCC(=O)NC3CCCCC3)n(C)c(=O)c2S1 (stereo not given) | inconclusive: 9.2 µM [cytotoxic, partial curve] | 
67 | COc1ccc2oc(C(=O)OCC(=O)N3CCCCC3C)c(C)c2c1 (stereo not given) | active: 20.6 µM | 
68 | CCCn1nc(C(=O)NNC(=O)CSC(C)C(=O)Nc2cc(C)on2)c2ccccc2c1=O (stereo not given) | inactive | 
69 | CCOC(=O)c1ccc2c(c1)N(CC(=O)Nc1cc(F)ccc1F)C(=O)c1ccccc1S2 | inconclusive: 1.84 µM [cytotoxic, full curve] | 
70 | COCCN1C(=O)Cc2c1nc(N)c1c(N)nc(N3CCN(c4ccc(F)cc4)CC3)c(C#N)c21 | inconclusive: 25.9 µM [rising, single point] | 

Part of the list above in a different format.
Row	Compound	Potency	activity change, negative = cytotoxicity
64	Cc1ccccc1OCC(=O)NNC(=O)c1ccc(-n2cncn2)c([N+](=O)[O-])c1	inconclusive: 29.1 µM [cytotoxic, single point]	
65	CSc1ccccc1NC(=O)C1=CC(c2ccc3c(c2)OCO3)=NS(=O)(=O)N1C	inactive	
66	CC1Cc2nc(SCC(=O)NC3CCCCC3)n(C)c(=O)c2S1 (stereo not given)	inconclusive: 9.2 µM [cytotoxic, partial curve]	
